Laboratory results as given in article PMC3990689, “Identification and Characterization of ABA Receptors in Oryza sativa” (PLoS ONE, 2014).
Results are given in words; binding and its absence hold for the method and conditions named.

Key:
[1] = target: OsPYL11 (Oryza sativa (japonica cultivar-group)) (UniProt Q6I5C3); assay: SEC; Superdex-200 HR10/300 GL, 25 mM HEPES pH 7.0, 150 mM NaCl; 500 µL OsPYL (OD280 = 0.75) applied; oligomerization state; both purified
[2] = target: OsPYL11 (Oryza sativa (japonica cultivar-group)) (UniProt Q6I5C3); assay: AUC; sedimentation velocity at 4°C, 40,000 rpm; OsPYL proteins at OD280 = 0.75; absorbance at 280 nm; oligomerization state; both purified
[3] = target: OsPYL11 (Oryza sativa (japonica cultivar-group)) (UniProt Q6I5C3); assay: static light scattering; DAWN HELLOS II (Wyatt) at 18°C; OsPYLs about 2 mg/mL; calibrated with albumin monomer standard; oligomerization state; both purified

binding [1]: no binding (tested: OD280 = 0.75)
binding [2]: no binding (tested: OD280 = 0.75)
binding [3]: no binding (tested: about 2 mg/mL)
B1: OsPYL11 (receptor, UniProt Q6I5C3 1-209)
chain: MVGLVGGGGWRVGDDAAGGGGGGAVAAGAAAAAEAEHMRRLHSHAPGEHQCSSALVKHIKAPVHLVWSLVRSFDQPQRYKPFVSRCVVRGGDLEIGSVREVNVKTGLPATTSTERLELLDDDEHILSVKFVGGDHRLRNYSSIVTVHPESIDGRPGTLVIESFVVDVPDGNTKDETCYFVEAVIKCNLTSLAEVSERLAVQSPTSPLEQ
